No constants are given. Whether binding was seen depends on the method and setting. Binding seen in cells or lysates may run through a third protein.
Molecular target: T1, Shep (endogenous, embryo nuclear extract) (Drosophila (endogenous in embryos)) (UniProt Q8MSV2)
T1 sequence: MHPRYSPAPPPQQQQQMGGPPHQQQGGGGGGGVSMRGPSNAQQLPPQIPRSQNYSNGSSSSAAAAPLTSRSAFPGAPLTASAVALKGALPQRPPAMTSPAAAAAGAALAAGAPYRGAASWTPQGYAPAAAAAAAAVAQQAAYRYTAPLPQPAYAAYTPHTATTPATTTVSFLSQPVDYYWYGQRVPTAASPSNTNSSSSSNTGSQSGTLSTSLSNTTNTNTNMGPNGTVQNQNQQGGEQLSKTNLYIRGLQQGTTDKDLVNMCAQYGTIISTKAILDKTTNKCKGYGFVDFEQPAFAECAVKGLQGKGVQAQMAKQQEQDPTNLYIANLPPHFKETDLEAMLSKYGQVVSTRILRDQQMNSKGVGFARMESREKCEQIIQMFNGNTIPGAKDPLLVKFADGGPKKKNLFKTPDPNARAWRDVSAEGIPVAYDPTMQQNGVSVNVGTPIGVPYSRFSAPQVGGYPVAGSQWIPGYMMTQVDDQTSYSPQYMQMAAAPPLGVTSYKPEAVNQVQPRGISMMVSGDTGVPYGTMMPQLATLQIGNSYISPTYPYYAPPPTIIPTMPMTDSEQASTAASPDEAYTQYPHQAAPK
Experiment: co-IP; embryo nuclear extracts in HBSMT, α-Shep or pre-immune serum pre-conjugated to protein A sepharose, 1 h at 4°C; Western blotting

B1: Pc (protein, UniProt P26017 1-390)
chain: MTGRGKGSKGKLGRDNATDDPVDLVYAAEKIIQKRVKKGVVEYRVKWKGWNQRYNTWEPEVNILDRRLIDIYEQTNKSSGTPSKRGIKKKEKEPDPEPESEEDEYTFTENDVDTHQATTSSATHDKESKKEKKHHHHHHHHHHIKSERNSGRRSESPLTHHHHHHHHESKRQRIDHSSSSNSSFTHNSFVPEPDSNSSSSEDQPLIGTKRKAEVLKESGKIGVTIKTSPDGPTIKPQPTQQVTPSQQQPFQDQQQAEKIASEAATQLKSEQQATPLATEAINTTPAESGAEEEEVANEEGNQQAPQVPSENNNIPKPCNNLAINQKQPLTPLSPRALPPRFWLPAKCNISNRVVITDVTVNLETVTIRECKTERGFFRERDMKGDSSPVA
  binding: no binding
